Data as given in paper doi:10.1101/2023.04.19.537449.
No constants are given. Whether binding was seen depends on the method and setting. In cells and extracts the contact can be indirect. Binding can be weak; no strength is given.

Amino acid sequences for entries named in this document (tags omitted). A change or cut given only in a name is not applied to a line headed by its entry.
UniProt Q9Y2J4: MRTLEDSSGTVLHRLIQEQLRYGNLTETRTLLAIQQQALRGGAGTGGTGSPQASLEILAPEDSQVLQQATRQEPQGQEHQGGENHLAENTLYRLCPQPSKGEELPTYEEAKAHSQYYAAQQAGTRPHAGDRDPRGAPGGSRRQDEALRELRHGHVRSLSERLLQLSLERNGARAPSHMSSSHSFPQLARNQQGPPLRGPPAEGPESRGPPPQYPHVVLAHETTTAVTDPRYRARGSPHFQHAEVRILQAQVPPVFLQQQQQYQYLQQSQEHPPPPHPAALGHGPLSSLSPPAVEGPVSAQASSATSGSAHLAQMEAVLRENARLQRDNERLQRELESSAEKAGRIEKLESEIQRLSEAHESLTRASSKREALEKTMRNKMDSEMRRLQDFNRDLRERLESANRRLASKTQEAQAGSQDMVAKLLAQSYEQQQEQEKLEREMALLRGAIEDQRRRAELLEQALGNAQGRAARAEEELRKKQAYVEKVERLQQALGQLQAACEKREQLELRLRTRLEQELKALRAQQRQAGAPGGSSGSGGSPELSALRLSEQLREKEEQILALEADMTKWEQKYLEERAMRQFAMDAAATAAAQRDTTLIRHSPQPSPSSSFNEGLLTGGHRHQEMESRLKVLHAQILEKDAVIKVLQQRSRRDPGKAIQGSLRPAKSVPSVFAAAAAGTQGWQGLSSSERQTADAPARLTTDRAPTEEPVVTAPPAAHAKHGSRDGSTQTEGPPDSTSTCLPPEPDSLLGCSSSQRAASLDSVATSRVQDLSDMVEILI
UniProt P46937: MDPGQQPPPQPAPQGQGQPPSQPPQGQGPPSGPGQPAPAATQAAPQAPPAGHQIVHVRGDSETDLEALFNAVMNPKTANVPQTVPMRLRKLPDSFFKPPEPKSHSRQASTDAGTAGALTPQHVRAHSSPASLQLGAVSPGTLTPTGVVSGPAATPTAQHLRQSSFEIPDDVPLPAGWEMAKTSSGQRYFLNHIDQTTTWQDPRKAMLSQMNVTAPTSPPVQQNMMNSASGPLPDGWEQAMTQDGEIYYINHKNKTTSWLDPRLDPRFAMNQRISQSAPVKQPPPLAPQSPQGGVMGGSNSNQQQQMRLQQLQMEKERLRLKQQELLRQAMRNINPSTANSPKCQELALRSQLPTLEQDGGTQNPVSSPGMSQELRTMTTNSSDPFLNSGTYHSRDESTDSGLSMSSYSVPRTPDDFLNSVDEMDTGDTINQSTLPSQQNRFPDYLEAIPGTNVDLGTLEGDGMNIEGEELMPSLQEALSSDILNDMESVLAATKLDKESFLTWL

Legend:
Experiment in all cases: co-IP; HEK293T cells at high cell density co-expressing FLAG-AMOTL2 forms and HA-YAP; 1 mg lysate (RIPA or nondenaturing lysis buffer: 20 mM Tris, 137 mM NaCl, 0.5% NP-40) with anti-FLAG M2 magnetic beads overnight at 4°C; eluted with FLAG peptide; anti-HA blot
[1] = target: FLAG-tagged double exon-skipped AMOTL2 (Δ5Δ9) (UniProt Q9Y2J4)
[2] = target: FLAG-tagged exon 9-skipped AMOTL2 (Δ9) (UniProt Q9Y2J4)
[3] = target: FLAG-tagged exon 5-skipped AMOTL2 (Δ5) (UniProt Q9Y2J4)

Measured: binding

HA-tagged YAP (Yes-associated protein 1) (from UniProt P46937 1-504)
binds: all assays above
